Experimental data reported in PMC10290124 (Nature Communications, 2023).
These are yes or no findings as the source states them, for the method shown. Some binding calls cover weakened binding; strength is not graded here.

Chains of the proteins cited; added tags and fusions are not shown.
UniProt Q9HBA0: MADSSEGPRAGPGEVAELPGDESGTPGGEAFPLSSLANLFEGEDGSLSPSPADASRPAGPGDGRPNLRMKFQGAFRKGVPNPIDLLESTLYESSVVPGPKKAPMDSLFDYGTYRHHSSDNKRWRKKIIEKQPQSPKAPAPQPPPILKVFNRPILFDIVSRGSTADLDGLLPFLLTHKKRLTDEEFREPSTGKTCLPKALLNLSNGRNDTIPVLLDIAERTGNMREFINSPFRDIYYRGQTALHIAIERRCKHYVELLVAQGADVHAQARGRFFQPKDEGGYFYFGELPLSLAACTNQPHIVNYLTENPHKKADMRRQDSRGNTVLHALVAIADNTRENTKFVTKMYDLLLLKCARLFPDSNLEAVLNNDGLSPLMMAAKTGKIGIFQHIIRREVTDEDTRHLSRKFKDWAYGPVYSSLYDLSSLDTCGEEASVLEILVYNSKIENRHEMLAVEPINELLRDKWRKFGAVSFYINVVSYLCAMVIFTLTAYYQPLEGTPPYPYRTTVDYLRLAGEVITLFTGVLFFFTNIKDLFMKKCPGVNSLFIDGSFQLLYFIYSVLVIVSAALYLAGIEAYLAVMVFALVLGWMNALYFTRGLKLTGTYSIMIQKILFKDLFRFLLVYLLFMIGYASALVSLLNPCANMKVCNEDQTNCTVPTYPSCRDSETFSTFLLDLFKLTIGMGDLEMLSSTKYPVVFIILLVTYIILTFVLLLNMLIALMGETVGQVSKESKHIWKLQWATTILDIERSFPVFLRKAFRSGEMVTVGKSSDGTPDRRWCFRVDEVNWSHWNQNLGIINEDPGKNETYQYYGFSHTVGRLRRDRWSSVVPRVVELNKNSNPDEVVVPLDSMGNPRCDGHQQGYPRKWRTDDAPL
UniProt P61586: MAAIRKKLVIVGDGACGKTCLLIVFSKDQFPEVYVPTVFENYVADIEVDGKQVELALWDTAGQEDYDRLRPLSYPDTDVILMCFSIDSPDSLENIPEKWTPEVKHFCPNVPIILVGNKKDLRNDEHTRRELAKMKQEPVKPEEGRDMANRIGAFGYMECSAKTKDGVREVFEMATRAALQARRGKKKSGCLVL

What was measured:
[1] = target: full-length wild-type human TRPV4 (human) (UniProt Q9HBA0); experiment: cryo-EM structure; hTRPV4 purified from HEK 293S cells in GDN with endogenous RhoA carried along; supplemented with 200 μM 4α-PDD and 10 mM GTPγS right before grid freezing; 22 °C
[2] = target: full-length wild-type human TRPV4 (human) (UniProt Q9HBA0); experiment: cryo-EM structure; hTRPV4 purified from HEK 293S cells in GDN (20 mM Tris pH 8.0, 150 mM NaCl, 1 mM βME, 0.01% GDN) with endogenous RhoA carried along; apo state, no added ligands; grids frozen at 22 °C
[3] = target: full-length wild-type human TRPV4 (human) (UniProt Q9HBA0); experiment: cryo-EM structure; hTRPV4 purified from HEK 293S cells in GDN with endogenous RhoA carried along; supplemented with 200 μM HC-067047, incubated 10 min at room temperature; grids frozen at 4 °C

Measured: binding

small GTPase RhoA (from UniProt P61586 1-193)
binds: all assays above
